Article PMC7072417
Like-named read-outs stand apart in the source and are kept apart here. Results are given in words; binding and its absence hold for the method and conditions named. Binding seen in cells or lysates may run through a third protein. Some binding calls cover weakened binding; strength is not graded here.

Amino acid sequences for entries named in this document (tags omitted).
UniProt P68101: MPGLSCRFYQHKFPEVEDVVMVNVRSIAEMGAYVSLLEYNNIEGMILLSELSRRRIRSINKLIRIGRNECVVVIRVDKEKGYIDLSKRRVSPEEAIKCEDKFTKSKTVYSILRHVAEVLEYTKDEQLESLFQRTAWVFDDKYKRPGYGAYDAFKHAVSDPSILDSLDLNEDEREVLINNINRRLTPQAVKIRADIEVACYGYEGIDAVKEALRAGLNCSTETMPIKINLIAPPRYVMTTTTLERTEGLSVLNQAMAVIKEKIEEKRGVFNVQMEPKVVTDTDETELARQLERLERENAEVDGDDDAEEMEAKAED

What was measured:
Experiment in all cases: co-IP; endogenous proteins immunoprecipitated from H9c2 lysates (non-denaturing lysis buffer: 20 mM Tris-HCl, 137 mM NaCl, 1% Triton X-100, 2 mM EDTA, pH 8) with anti-SIRT1, anti-eIF2α, anti-eEF2K or anti-eEF2 antibodies on G magnetic beads; Western blot; mouse and rabbit IgG as controls; for eIF2α cells treated or not with 10 μg/mL tunicamycin
[1] = molecular target: T1, eukaryotic elongation factor-2 kinase (rat (endogenous in H9c2)) (UniProt P70531)
T1 sequence: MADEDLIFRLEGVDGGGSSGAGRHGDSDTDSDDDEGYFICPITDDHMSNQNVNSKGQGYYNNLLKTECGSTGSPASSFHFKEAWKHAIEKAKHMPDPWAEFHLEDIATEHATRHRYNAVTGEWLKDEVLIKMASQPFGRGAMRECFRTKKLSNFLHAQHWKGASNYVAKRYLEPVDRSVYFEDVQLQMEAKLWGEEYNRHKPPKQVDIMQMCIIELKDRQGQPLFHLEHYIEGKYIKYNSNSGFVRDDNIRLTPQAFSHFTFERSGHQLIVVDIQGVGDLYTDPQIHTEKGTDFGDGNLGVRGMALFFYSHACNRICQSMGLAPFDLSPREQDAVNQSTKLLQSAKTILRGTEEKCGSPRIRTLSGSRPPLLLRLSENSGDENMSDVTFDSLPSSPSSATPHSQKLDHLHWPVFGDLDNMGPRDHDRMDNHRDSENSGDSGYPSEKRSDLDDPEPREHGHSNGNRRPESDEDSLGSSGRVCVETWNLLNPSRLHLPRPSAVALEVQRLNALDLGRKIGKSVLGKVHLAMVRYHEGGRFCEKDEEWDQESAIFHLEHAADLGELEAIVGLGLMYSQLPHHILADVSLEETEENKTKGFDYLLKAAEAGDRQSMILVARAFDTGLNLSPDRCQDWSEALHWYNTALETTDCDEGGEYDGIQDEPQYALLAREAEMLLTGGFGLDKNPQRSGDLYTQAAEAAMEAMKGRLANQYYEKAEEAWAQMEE

[2] = molecular target: T2, Sirtuin 1 (rat (endogenous in H9c2))
T2 sequence: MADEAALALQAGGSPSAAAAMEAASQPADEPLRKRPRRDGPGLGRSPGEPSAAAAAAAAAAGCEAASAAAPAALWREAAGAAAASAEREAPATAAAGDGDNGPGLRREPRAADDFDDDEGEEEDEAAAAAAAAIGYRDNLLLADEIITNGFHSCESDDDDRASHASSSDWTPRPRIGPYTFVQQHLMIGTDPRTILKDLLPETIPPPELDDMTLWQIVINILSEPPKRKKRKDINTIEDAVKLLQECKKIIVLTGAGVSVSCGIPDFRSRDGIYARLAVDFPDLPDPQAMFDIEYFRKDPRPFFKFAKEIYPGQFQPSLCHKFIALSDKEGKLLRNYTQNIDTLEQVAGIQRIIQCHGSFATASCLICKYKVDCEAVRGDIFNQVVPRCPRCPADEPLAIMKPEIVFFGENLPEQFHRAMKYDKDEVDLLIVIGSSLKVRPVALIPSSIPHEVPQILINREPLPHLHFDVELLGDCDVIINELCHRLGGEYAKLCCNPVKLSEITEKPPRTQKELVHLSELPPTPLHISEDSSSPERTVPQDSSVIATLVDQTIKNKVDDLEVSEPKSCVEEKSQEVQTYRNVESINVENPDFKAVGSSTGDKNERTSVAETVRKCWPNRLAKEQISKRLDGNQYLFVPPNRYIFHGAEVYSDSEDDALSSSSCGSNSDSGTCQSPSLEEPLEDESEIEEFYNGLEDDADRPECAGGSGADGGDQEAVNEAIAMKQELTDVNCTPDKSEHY

[3] = molecular target: T1, eukaryotic elongation factor-2 kinase (rat (endogenous in H9c2)); remark: listed apart in the source

eIF2α (from UniProt P68101 1-315)
binding [1]: binds

B1: eukaryotic elongation factor-2 kinase (enzyme, UniProt P70531 1-724)
chain: T1 sequence
binding [2]: no binding

B2: Sirtuin 1 (enzyme, UniProt A0A0G2JZ79 1-741)
chain: T2 sequence
binding [3]: no binding
